Data set [1] deals with alpha-thrombin (Homo sapiens). The data set can be described thus: binding assay. The conditions noted are these: CITED reported 15mer aptamer-thrombin Kd used in calculation; purified native protein; protein details: Haematologic Technologies Inc.; single-stranded DNA.
The test system of data set [2] is anti-human thrombin monoclonal antibody (AHT). Description: binding assay. The conditions noted are these: FRET control without thrombin, no fluorescence change; purified native protein; protein details: Haematologic Technologies Inc.; label: 5'-6-FAM, 3'-Dabcyl; single-stranded DNA; variant of 15Ap.
Data set [3] relates to alpha-thrombin (Homo sapiens). Description: inhibition of the protein. To be noted: PEG linker of eight 18-atom spacer units joining 15Ap and 27Ap; fibrinogen clotting by light scattering; enzymatic rate as much as 10 times slower compared to 15Ap; pH 7.4, 150 mM NaCl, 5 mM KCl, 1 mM MgCl2, 1 mM CaCl2; purified native protein; protein details: Haematologic Technologies Inc.; single-stranded DNA.

These results are taken from patent publication US20090208936.

The Kd is the free concentration of one partner at which half of the binding sites on the other are occupied at equilibrium, for simple one-to-one binding.

The exact form of at least one protein or probe is not confirmed. For part of these data: A negative result means that nothing was seen under these conditions.

On to GGTTGGTGTGGTTGG [15Ap], for which the Kd in data set [1] is 75 nM. Turning to GGTTGGTGTGGTTGG [FQ-15Ap], the binding result in data set [2] is reported as “no binding”.

The sequence “GGTTGGTGTGGTTGGACCCGTGGTAGGGTAGGATGGGGTGGT [DA-8S]” registered a functional effect of the aptamer (fold slower than 15Ap) in data set [3] of 10.
